Source: PubChem BioAssay AID624344 (Sanford-Burnham Center for Chemical Genomics, 2012)
Activity calls are given as the source filed them. The rule behind the calls is not given here.

How the values were obtained:
[1] = NFkB reporter suppression in cystic fibrosis bronchial cells – cell-based, uHTS hits, panel, cytotoxicity readout, dose response (AID 624344); details: CF bronchial epithelial cells, PAF-induced NFkB reporter inhibition; with PAF, mean of runs
[2] = system: Cytotoxicity; assay: as above; details: CF bronchial epithelial cells, mean of runs

With `COc1c(O)cc2c(c1OC)-c1ccc(OC)c(=O)cc1C(NC(C)=O)CC2` (configuration not stated) the IC50 [1] was inactive: > 79 µM and the IC50 [2] was inactive: > 79 µM.
